# Assay results: PubChem BioAssay AID1671190 (National Center for Advancing Translational Sciences (NCATS), 2021)
# Protein sequences, listed by entry. Tags and fused reporters are not part of them. Lines headed by an entry give the natural chain unless they say otherwise; changes in a name come on top.
# UniProt P18054: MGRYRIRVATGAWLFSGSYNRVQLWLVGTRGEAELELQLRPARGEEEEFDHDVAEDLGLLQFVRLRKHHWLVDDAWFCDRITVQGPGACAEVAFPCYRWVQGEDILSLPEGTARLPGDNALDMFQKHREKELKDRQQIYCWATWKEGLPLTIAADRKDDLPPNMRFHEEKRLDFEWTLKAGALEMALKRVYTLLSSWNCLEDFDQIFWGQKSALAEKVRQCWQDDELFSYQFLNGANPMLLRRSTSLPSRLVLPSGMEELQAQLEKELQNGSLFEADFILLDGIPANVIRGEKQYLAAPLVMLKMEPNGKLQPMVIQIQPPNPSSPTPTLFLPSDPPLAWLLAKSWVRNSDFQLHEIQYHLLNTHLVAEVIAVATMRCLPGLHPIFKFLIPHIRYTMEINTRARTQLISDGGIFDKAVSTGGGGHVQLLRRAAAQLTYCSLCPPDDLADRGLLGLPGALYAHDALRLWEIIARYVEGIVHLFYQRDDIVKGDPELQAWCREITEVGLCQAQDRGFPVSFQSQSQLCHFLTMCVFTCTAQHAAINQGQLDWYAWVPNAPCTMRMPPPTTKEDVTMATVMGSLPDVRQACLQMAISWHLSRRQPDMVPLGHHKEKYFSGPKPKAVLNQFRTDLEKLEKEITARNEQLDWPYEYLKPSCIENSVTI
# Among all 580,000 compounds or so, about 6,100 (1.1%) were called active. Calls come from the whole dose curve; as a rule, active = well fitted inhibition curve with a large enough effect; inconclusive = small, poorly fitted or top-dose-only effect, or another doubt; inactive = no such curve, though single readings can be large or run the other way. Inconclusive means that the source gave no clear call. Potencies of inconclusive entries are doubtful fits and often do not repeat.
# Target: Polyunsaturated fatty acid lipoxygenase ALOX12 (Homo sapiens) (UniProt P18054)
# Assay: Primary qHTS assay for inhibitors of human arachidonate 12S-lipoxygenase (ALOX12): Round 2
# Conditions: purified 12hLO, xylenol orange hydroperoxide absorbance; series mostly up to 108 µM
# From the text: Assay Provider: Theodore R. Holman Ph.D. University of California, Santa Cruz, California Human lipoxygenase 12hLO is a member of the closely related lipoxygenase family of enzymes which catalyze the site-specific oxidation of arachidonic acid to various hormone precursor molecules and as such is a candidate for drug development in a variety of disease areas, such as cancer and inflammation. Inhibition of 12hLO activity was screened by utilizing arachidonic acid as a substrate. The extent of hydroperoxide product formation was measured by a secondary chromogenic reaction in which xylenol orange (XO, Sigma-Aldrich, cat. number 39,818-7) reacts with the ferric ions produced from the reaction between the hydroperoxide and ferrous ions. The Fe (III)-XO complex is characterized with red-shifted absorbance at 560 nm. A purified preparation of human 12hLO was supplied by Dr. Holman laboratory, University of California, Santa Cruz.
# PROTOCOL TABLE SEQUENCE No. (e.g., 1, 2, 3, etc.); […] (e.g., Cells, Incubation, Reagent, etc.); VALUE; DESCRIPTION 1; Enzyme; 3 uL; 150 nM 12hLO enzyme solution dispensed in 1536-well Greiner black, clear bottom plates. 2; Compound; 23 nL; compounds and controls were added. 3; Incubate; 15 min; room temperature. 4; Substrate; 1 uL; 40 uM arachidonic acid (final concentration). 5; Incubate; 30 min; room temperature. 6; Reagent; 4 uL; Fe-XO solution was added to each well. 7; Incubation; 30 min; room temperature 8; Detector; absorbance; Read 1 at 405 nm absorbance using ViewLux (Perkin-Elmer) CCD imager. 9; Detector; absorbance; Read 2 at 573 nm absorbance using ViewLux (Perkin-Elmer) CCD imager. NOTES (numbers refer to sequence above) 1; 150 nM 12hLO (final concentration) in buffer solution (25 mM Hepes, 0.01% Triton X-100, pH 7.0) was dispensed in columns 1, 2, 5-48. Column 1 is neutral (100% activity). Buffer only was dispensed in columns 3 and 4 as no enzyme negative controls. The plates were covered with metal lids with gas-exchange holes. 2; Compounds were pin transferred via a Kalypsys Pin Tool (Wako USA) in column 5-48. Control compound was transferred in column 2, titration of nordihydroguaiaretic acid (NDGA, Sigma-Aldrich, N5023) with top concentration of 20 mM in DMSO then 1:3 dilution in duplicate. Dilution factor of 23 nL into 4 uL final assay volume. 3; Covered assay plates were incubated for 15 min at room temperature. 4; Substrate was added to start the reaction; 40 uM arachidonic acid (Sigma-Aldrich, St. Louis, MO) was dispensed throughout the plate. 6; Chromogenic detection reagent solution (divalent iron/xylenol orange, Fe-XO) was added to each well: 200 uM xylenol orange, 300 uM ferrous ammonium sulfate prepared freshly in 50 mM sulfuric acid. 8, 9; Two absorbance readouts were obtained at 405 nm and at 573 nm using a ViewLux high-throughput CCD plate imager (Perkin-Elmer). The 573 to 405 (Read 2 / Read 1) absorbance ratio was used to compute reaction progress.
# Potency is the fitted concentration of half-maximal effect.
row,SMILES,Potency
1,Cc1ccc(S(=O)(=O)Oc2ccc(/C=C3\C(=N)N4N=C(S(C)(=O)=O)SC4=NC3=O)cc2)cc1,"inconclusive: 70.8 µM [inhibitor, partial curve, poor fit]"
2,CS(=O)(=O)C1=NSC2=NC(=O)/C(=C\c3ccc(OC(=O)c4ccco4)c(Br)c3)C(=N)N21,"inconclusive: 44.7 µM [inhibitor, partial curve, poor fit]"
3,CC(C)(C)c1ccc2c(c1)OC(C(=O)N/N=C\c1ccc(-c3cccc(C(=O)O)c3)o1)CO2 (stereo not given),"inconclusive: 79.4 µM [inhibitor, partial curve, poor fit]"
4,CCOc1cc(/C=C2/C(=N)N3C(=NC2=O)SN=C3S(=O)(=O)CC)ccc1OC(=O)c1ccco1,"inconclusive: 39.8 µM [inhibitor, partial curve]"
5,Cc1c(CC(=O)O)c(=O)oc2c(C)c3occ(-c4ccc(Br)cc4)c3cc12,"inconclusive: 39.8 µM [inhibitor, partial curve]"
